Data set [1] is described as follows: general procedure: Fmoc solid-phase peptide synthesis; Fmoc-TMSAla-2-ClTrt resin; HOBt/HBTU/DIPEA. The note with it: whole synthesis, 1.00 mmol/g.
Data set [2] is described as follows: general procedure: Fmoc solid-phase peptide synthesis; 2-ClTrt resin (Fmoc-TMSAla-2-ClTrt, 1.00 mmol/g); HOBt/HBTU/DIPEA. The conditions noted are these: whole synthesis, hydrotrifluoroacetate (TFA salt); for final HPLC purity: 220 nm; for isolated yield: scale 50 mg, 1.00 mmol/g.
[3] abbreviates: scale 75 mg, Tris(hydrotrifluoroacetate).
Where [4] appears, read: scale 75 mg, hydrotrifluoroacetate (TFA salt).
[5] abbreviates: scale 50 mg, hydrotrifluoroacetate (TFA salt).

Strings that start with PEPTIDE1 are HELM notation: dots part the residues, brackets hold end groups and non-standard residues. Where only a bound is given, the exact number is not on record here.

With “PEPTIDE1{[NMeArg].R.P.Y.I.[TMSAla]}$$$$V2.0”, in data set [1] (setting [3]), the isolated mass was 40.3 mg. The isolated yield in data set [1] (setting [4]) is 44%. Also, the “final HPLC purity” value in data set [2] was over 99%.
Regarding “PEPTIDE1{[NMeArg].R.P.[bbdiMe-L-Tyr].I.[TMSAla]}$$$$V2.0”, the isolated mass in data set [1] (setting [5]) is listed as 23.0 mg. For the same substance, in data set [2], the “final HPLC purity” value is 99% and the isolated yield is reported as 37%.
For the substance “Lys-Lys-Pro-Tyr-Ile-β-trimethylsilyl-Ala Tris(hydrotrifluoroacetate)”, the isolated mass in data set [1] (scale 50 mg, Tris(hydrotrifluoroacetate)) was 29.4 mg. In addition, the isolated yield in data set [1] (setting [5]) is on record as 52%. Further, the “final HPLC purity” value in data set [2] was over 99%.
In data set [1] (setting [3]), PEPTIDE1{R.R.P.Y.I.[TMSAla]}$$$$V2.0 returned an isolated mass of 34.1 mg. Further, the isolated yield in data set [1] (setting [4]) amounted to 38%. In addition, in data set [2], the “final HPLC purity” value is over 99%.
Turning to “PEPTIDE1{[NMeArg].R.P.[bbdiMe-D-Tyr].I.[TMSAla]}$$$$V2.0”, the isolated mass in data set [1] (setting [5]) was 21.1 mg. Besides, in data set [2], the “final HPLC purity” value is reported as 97% and the isolated yield worked out at 34%.

Values taken from publication PMC12481580 (Journal of Medicinal Chemistry, 2025).
